For assay [1], the target named is T1, myc-MICAL1 (human) (UniProt Q8TDZ2).
T1 sequence: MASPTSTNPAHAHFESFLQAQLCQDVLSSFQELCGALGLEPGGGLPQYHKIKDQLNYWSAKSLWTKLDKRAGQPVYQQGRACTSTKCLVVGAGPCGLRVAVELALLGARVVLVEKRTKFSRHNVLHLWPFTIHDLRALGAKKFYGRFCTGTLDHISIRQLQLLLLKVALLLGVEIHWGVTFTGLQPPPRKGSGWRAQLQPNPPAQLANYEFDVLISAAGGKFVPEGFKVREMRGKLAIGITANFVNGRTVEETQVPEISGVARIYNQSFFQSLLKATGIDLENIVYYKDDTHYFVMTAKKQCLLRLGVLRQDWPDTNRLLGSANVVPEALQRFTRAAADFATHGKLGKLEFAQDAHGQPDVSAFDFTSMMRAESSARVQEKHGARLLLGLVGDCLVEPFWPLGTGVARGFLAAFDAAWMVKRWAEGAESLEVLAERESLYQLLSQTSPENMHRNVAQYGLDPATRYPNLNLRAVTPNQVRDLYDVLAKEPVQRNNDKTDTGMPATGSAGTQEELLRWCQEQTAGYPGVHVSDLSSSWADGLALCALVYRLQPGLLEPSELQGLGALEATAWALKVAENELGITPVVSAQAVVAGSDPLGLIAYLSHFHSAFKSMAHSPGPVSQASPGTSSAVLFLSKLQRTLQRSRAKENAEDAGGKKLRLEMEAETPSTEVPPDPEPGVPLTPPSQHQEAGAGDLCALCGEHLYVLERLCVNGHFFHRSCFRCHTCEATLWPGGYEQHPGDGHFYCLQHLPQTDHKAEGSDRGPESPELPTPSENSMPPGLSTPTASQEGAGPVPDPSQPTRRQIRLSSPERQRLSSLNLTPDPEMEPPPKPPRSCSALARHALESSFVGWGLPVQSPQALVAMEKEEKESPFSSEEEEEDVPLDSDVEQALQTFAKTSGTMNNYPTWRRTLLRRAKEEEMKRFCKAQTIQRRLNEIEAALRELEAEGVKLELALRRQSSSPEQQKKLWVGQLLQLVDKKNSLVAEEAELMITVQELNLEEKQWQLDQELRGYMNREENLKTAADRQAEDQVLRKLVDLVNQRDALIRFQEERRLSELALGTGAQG
The assay can be described thus: co-IP; transfected 293T, IP with α-myc antibody and Protein G Sepharose; 20 mM Hepes pH 7.4, 150 mM NaCl, 2 mM EDTA, 1% IGEPAL CA-630; Western blot.

Protein sequences, listed by entry. Tags and fused reporters are not part of them.
UniProt P61007: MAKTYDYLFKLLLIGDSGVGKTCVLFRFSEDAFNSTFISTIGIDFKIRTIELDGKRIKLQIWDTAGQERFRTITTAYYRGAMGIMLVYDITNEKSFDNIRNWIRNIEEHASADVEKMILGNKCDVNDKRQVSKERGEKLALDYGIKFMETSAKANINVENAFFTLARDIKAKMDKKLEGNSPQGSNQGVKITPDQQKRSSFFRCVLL
UniProt O95292: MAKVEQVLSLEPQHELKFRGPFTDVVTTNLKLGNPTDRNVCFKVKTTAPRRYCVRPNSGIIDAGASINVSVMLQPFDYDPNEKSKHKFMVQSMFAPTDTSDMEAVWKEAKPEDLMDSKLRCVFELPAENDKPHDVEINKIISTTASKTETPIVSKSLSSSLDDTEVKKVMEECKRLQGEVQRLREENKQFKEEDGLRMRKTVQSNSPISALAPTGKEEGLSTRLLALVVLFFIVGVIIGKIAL

The target of assay [2] is T2, myc–MICAL1 G3W (human) (UniProt Q8TDZ2).
T2 sequence: T1 sequence with G91W, G93W, G96W
The description is as above.

Assay [3] addresses T3, myc-MICAL1^tail (human) (UniProt Q8TDZ2).
T3 sequence: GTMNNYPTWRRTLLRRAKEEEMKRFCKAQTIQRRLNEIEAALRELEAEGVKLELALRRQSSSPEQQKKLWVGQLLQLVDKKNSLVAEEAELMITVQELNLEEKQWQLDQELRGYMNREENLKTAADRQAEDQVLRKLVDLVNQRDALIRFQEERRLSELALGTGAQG
Briefly: co-IP; transfected 293T, IP with α-myc–coated magnetic beads; 20 mM Hepes pH 7.4, 150 mM NaCl, 2 mM EDTA, 1% IGEPAL CA-630; Western blot.

The target in assay [4] is T4, myc-MICAL1^Pro (human) (UniProt Q8TDZ2).
T4 sequence: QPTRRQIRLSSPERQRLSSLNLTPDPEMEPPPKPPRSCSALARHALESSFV
The description is as above.

The target in assay [5] is T5, GFP-WDR44 ΔFFAT (human) (UniProt Q5JSH3).
T5 sequence: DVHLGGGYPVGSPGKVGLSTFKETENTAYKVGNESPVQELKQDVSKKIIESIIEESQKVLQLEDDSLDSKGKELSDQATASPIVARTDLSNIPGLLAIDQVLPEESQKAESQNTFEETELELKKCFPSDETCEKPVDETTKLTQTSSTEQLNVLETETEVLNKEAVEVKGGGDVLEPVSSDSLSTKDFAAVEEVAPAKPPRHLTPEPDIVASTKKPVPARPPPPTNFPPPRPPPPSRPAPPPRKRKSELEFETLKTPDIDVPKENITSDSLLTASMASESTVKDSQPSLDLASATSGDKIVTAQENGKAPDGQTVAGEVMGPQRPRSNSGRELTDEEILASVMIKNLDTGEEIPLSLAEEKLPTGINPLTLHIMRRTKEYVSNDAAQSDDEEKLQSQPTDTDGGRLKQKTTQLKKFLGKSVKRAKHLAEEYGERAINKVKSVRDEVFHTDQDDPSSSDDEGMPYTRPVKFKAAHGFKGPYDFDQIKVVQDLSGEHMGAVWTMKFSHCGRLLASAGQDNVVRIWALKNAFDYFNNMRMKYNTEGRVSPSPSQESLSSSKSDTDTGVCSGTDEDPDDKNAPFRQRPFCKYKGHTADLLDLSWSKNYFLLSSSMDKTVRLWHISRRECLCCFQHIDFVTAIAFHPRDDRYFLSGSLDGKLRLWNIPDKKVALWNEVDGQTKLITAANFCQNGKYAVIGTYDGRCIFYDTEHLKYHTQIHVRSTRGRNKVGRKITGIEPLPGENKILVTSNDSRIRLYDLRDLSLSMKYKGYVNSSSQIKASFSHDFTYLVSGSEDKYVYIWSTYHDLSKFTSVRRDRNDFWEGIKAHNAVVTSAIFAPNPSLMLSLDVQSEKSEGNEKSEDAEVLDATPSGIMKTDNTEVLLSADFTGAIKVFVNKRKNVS
Briefly: co-IP; transfected 293T, IP with α-GFP and Protein G Sepharose; 20 mM Hepes pH 7.4, 150 mM NaCl, 2 mM EDTA, 1% IGEPAL CA-630; Western blot.

Assay [6] deals with T6, GFP-WDR44 (human) (UniProt Q5JSH3).
T6 sequence: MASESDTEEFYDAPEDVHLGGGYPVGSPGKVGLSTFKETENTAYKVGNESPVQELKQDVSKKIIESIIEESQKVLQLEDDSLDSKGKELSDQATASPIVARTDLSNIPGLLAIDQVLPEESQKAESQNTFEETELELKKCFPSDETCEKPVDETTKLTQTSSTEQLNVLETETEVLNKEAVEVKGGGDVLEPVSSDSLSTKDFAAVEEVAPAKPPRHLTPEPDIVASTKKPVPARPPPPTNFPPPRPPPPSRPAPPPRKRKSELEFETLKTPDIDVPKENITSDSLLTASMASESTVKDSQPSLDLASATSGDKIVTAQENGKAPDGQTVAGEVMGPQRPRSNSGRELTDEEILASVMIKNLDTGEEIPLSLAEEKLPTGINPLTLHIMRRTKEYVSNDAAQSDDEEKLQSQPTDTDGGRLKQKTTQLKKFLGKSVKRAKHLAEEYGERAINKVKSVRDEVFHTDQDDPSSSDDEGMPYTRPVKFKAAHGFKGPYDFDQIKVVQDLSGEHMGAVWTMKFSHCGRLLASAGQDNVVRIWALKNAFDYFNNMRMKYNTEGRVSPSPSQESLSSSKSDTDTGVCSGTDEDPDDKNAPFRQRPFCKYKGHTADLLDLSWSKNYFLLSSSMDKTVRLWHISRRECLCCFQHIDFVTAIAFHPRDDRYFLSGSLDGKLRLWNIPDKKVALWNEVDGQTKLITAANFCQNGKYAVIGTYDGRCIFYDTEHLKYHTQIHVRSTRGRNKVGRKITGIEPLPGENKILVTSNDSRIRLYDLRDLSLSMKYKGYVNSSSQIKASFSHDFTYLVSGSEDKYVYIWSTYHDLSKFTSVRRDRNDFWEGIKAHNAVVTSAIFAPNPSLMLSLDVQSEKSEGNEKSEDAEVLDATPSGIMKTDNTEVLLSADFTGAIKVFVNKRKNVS
The description is as above.

Numbering of substitutions follows the chain as printed. These are yes or no findings as the source states them, for the method shown. In cells and extracts the contact can be indirect. Some binding calls cover weakened binding; strength is not graded here. Sequences can lack the tags named with a protein.

For the substance GFP-Rab8a (from UniProt P61007 1-207), the binding result in assay [1] is reported as “binds”; in assay [2] it was “binds”; in assay [3], “binds”; in assay [4], “no binding”.

In the case of myc-VAPB (from UniProt O95292 1-243), the figures for the binding entry in assay [5] and in assay [6] were “no binding” and “binds”, respectively.

These data come from paper PMC7199855, “GRAF2, WDR44, and MICAL1 mediate Rab8/10/11–dependent export of E-cadherin, MMP14, and CFTR ΔF508” (The Journal of Cell Biology, 2020).
